No constants are given. Whether binding was seen depends on the method and setting. Sequences can lack the tags named with a protein.
Assays:
Assay in all cases: two-hybrid; yeast strain AH109; GAL4 activation domain fusions as prey, GAL4 DNA-binding domain fusions as bait; growth on SD/-Leu/-Trp/-His/-Ade, 30°C, 5 d
[1] = target: T1, HRS1 HOMOLOG 6 (HHO6), full length, yeast two-hybrid fusion (Arabidopsis thaliana) (UniProt Q9FX84)
T1 sequence: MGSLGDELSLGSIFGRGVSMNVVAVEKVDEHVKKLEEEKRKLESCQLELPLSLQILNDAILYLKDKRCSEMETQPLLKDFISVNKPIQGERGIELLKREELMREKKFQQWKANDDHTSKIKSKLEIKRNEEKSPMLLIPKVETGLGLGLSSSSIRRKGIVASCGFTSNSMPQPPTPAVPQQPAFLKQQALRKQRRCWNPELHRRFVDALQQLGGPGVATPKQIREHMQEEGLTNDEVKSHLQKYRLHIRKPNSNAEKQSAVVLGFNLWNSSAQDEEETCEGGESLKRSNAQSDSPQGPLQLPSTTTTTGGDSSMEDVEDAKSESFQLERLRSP

Sequences of proteins named here, by UniProt entry; tags and fusion partners are left off. Residues count along the entry.
UniProt Q94CL7, residues 208-362: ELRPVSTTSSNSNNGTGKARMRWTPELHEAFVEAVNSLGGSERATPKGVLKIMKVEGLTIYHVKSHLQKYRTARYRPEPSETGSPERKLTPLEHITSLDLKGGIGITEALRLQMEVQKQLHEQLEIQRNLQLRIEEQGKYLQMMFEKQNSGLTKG

[2] = target: T2, HRS1 HOMOLOG 5 (HHO5), full length, yeast two-hybrid fusion (Arabidopsis thaliana) (UniProt F4JRB0)
T2 sequence: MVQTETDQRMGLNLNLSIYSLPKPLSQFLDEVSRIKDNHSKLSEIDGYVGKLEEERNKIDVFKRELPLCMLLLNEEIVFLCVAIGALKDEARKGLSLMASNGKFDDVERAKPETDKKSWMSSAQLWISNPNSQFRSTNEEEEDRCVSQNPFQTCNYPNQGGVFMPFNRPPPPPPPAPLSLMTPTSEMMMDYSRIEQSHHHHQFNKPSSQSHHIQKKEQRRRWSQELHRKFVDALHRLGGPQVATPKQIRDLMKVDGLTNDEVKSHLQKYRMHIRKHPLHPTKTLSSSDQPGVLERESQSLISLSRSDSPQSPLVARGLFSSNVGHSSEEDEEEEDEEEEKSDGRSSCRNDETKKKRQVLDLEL

[3] = target: T3, HRS1 HOMOLOG 4 (HHO4), full length, yeast two-hybrid fusion (Arabidopsis thaliana) (UniProt Q9ZQ85)
T3 sequence: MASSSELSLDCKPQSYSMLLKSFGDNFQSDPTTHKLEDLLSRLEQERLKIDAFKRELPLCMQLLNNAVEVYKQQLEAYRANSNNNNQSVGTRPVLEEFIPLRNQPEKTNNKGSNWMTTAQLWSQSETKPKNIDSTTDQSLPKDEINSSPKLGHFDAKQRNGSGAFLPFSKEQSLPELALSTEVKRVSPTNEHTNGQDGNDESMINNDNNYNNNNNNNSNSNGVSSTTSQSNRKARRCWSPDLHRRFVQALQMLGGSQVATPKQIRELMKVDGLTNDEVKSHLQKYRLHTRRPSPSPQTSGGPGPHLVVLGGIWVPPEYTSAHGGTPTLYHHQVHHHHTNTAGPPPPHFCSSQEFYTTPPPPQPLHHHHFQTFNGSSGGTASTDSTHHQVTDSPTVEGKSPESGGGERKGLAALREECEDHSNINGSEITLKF

binding [1]: no binding
binding [2]: no binding
binding [3]: no binding
Substance: truncated PHOSPHATE STARVATION RESPONSE 1 (PHR1) carrying the GARP domain and CCD (208-362 aa), yeast two-hybrid fusion (from UniProt Q94CL7 208-362) (domain or fragment)

From paper PMC7660924
